The experiment has as its target T1, PA0990-VSV (PA0990 protein fused with a VSV affinity tag) (P. aeruginosa PAO1) (UniProt Q9I4X9).
T1 sequence: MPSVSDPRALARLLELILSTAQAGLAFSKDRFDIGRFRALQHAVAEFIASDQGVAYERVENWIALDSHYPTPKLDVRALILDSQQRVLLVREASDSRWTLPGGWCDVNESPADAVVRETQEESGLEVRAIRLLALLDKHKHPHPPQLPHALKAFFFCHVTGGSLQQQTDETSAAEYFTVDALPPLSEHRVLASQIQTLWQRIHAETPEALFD
Description: co-IP.

The chains behind the UniProt entries cited, without tags or fusion partners. Where a name states a change or a piece, a line headed by the entry shows the natural chain unless it says otherwise.
UniProt Q9I4Y0: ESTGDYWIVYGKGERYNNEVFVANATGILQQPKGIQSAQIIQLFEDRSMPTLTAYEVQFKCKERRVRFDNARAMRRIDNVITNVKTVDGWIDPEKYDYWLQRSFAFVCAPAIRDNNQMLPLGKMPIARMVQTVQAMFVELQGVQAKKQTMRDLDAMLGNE

No constants are given. Whether binding was seen depends on the method and setting. In cells and extracts the contact can be indirect. Binding calls can cover weak binding; strength is not graded here. Where a sequence is shown, tags or fusion partners need not be part of it.

As for “PseM-FLAG (P. aeruginosa secreted endolytic muramidase, product of gene locus PA0989) (from UniProt Q9I4Y0) (enzyme)”, the binding result was “binds”.

The values are drawn from paper PMC12494544 (The Journal of Biological Chemistry, 2025).
